# In paper PMC12871924, “Human FASTK preferentially binds single‐stranded and G‐rich RNA”:
# Where a chain is given by its changes, count along the chain named. Weaker means in comparison with the reference protein, sequence or condition of that experiment. Tags and fusion partners may be left off the protein sequences shown. For some of these results: For at least one entry, the source does not settle the construct or the ends of the probe. For some of these results: At least one verdict rests on a figure or table, not on a statement of the authors.
# Experiments:
# [1] = molecular target: T1, FASTK∆N1-75 del1-75 (Homo sapiens) (UniProt Q14296); assay: MST; details: MST: 1x PBS, 5% glycerol, 1 mM DTT, Tween-20 (0.05% in RNA stock), 20 nM RNA, 22 °C, RNA annealed in 50 mM Tris/HCl pH 7.5, 50 mM KCl (or LiCl), 50 mM NaCl, recombinant protein, residues 76-549, protein details: His6-SUMO cleaved
# T1 sequence (looked up): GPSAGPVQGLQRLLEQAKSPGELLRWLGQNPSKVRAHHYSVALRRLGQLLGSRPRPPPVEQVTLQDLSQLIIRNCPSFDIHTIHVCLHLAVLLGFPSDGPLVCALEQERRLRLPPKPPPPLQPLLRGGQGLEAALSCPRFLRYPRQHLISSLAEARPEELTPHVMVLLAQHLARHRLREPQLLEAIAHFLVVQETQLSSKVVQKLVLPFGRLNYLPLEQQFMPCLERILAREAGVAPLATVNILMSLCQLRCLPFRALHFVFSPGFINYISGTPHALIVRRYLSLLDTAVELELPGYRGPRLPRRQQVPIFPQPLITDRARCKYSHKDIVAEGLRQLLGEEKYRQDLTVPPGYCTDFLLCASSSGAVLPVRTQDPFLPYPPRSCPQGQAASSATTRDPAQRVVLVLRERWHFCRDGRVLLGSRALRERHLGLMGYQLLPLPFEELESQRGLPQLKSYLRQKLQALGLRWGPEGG
# [2] = molecular target: T2, FASTK∆N1-75 K275/K279/R286 mutant K275M,K279M,R286A,del1-75 (Homo sapiens) (UniProt Q14296); assay: MST; details: MST: 1x PBS, 5% glycerol, 1 mM DTT, Tween-20 (0.05% in RNA stock), 20 nM RNA, 22 °C; RNA annealed in 50 mM Tris/HCl pH 7.5, 50 mM KCl (or LiCl), 50 mM NaCl; recombinant protein; residues 76-549; protein details: His6-SUMO cleaved; label: Cy5 body (CTP or UTP), 5' 32P in footprinting
# T2 sequence (looked up): T1 sequence (looked up) with K200M, K204M, R211A
# [3] = Kd higher than oligos 5 and 10, label: Cy5 body (CTP or UTP)
# [4] = range for ds and loop RNAs, label: Cy5
# [5] = ssRNA range 2.7-10.3 nM, own value only in figure, label: Cy5
# [6] = 100 mM Li+, no Na+, weaker than in K+, label: Cy5
sequence,measurement,setting,value
GAGGGGCAGGUUUUGGCUCGUAAGAAGGCCUAGAUAGGGGAUUGUGCGGUGUGUGAUGCUAGGGUAGAAUCCGAGUAUGUUGGAGAAAUAAAAUGUGCAUAGUGGGGAUUUUAUUUUAAGUUUGU [ND6 oligo 8],binding result,[1]; [3],binds more weakly
GAGGGGUCAGGGUUGAUUCGGGAGGAUCCUAUUGGUGCGGGGGCUUUGUAUGAUUAUGGGCGUUGAUUAGUAGUAGUUACUGGUUGAACAUUGUUUGUUGGUGUAUAUAUUGUAAUUGAGAUUGC [ND6 oligo 5],binding result,[2],binds more weakly
GAUCCGGGAGGACCC / GGGUCUGUGGGGUC [internal loop],binding result,[1]; [4],binds more weakly
GAUGAUGUAUGCUUUGUUUCUGUUGAGUGUGGGUUUAGUAAUGGGGUUUGUGGGGUUUUCUUCUAAGCCUUCUCCUAUUUAUGGGGGUUUAGUAUUGAUUGUUAGCGGUGUGG [ND6 oligo 1],binding result,[1]; [3],binds more weakly
GGAUGGUUGUCUUUGGAUAUACUACAGCGAUGGCUAUUGAGGAGUAUCCUGAGGCAUGGGGGUCAGGGGUUGAGGUCUUGGUGAGUGUUUUAGUGGGGUUAGCGAUGGAGGUAGGAUUGGUGCUG [ND6 oligo 3],binding result,[1]; [3],binds more weakly
GGCGAUGGAGGUAGGAUUGGUGCUGUGGGUGAAAGAGUAUGAUGGGGUGGUGGUUGUGGUAAACUUUAAUAGUGUAGGAAGCUGAAUAAUUUAUGAAGGAGAGGGGUCAGGGUUGAUUCGGGAGG [ND6 oligo 4],binding result,[1]; [3],binds more weakly
GGUGGGGAUUUUAUUUUAAGUUUGUUGGUUAGGUAGUUGAGGUCUAGGGCUGUUAGAAGUCCUAGGAAAGUGACAGCGAGGGCUGUGAGUUUUAGGUAGAGGGGGAUUGUUGUUUGGAAGGGGGA [ND6 oligo 9],binding result,[1]; [3],binds more weakly
GUAGUAUUGAUUGUUAGCGGUGUGGUCGGGUGUGUUAUUAUUCUGAAUUUUGGGGGAGGUUAUAUGGGUUUAAUAGUUUUUUUAAUUUAUUUAGGGGGAAUGAUGGUUGUCUUUGGAUAUACUAC [ND6 oligo 2],binding result,[1]; [3],binds more weakly
GUAUGCCUUUUUGGGUUGAGGUGAUGAUGGAGGUGGAGAUUUGGUGCUGUGAAAUUGUUUUAGGUAAUAGCUUUUCUAGUCAGGUUAGGUCUAGGAGGAGUAGGGGCAGGUUUUGGCUCGUAAGA [ND6 oligo 7],binding result,[1]; [3],binds more weakly
GUCUCUGCAGUAGUUA / UAACUACUGCAGAGAC [dsRNA (ssRNA1+ssRNA2)],binding result,[1]; [4],binds more weakly
GUCUCUGCAGUAGUUA [ssRNA1],Kd,[1]; [5],< 10.3 nM
GUGUAUAUAUUGUAAUUGAGAUUGCUCGGGGGAAUAGGUUAUGUGAUUAGGAGUAGGGUUAGGAUGAGUGGGAAGAAGAAAGAGAGGAAGUAAAGUUUAAUUAUGCCUUUUUGGGUUGAGGUGAU [ND6 oligo 6],binding result,[1]; [3],binds more weakly
UAACUACUGCAGAGAC [ssRNA2],Kd,[1]; [5],< 10.3 nM
UGGGUCAUUGAUGAUGAUCCA [stem loop],binding result,[1]; [4],binds more weakly
UUACCCUUACCCUUACCCUUACCC [TERRA C-rich mutant],binding result,[1]; [6],binds more weakly
same,Kd,"[1]; K+ annealed, label: Cy5",32.8 nM
same,binding result,"[1]; Li+ annealed, Na+ present, Kd unchanged, label: Cy5",binds more weakly
UUAGAGUUAGUGUUAGAGUUAGUG [TERRA AU-rich mutant],binding result,[1]; [6],binds more weakly
UUAGGGUUAGGGUUAGGGUUAGGG [TERRA],binding result,[1]; [6],binds more weakly
